Earlier results, collected in US6649398B2, “Method for inducing bacterial growth using autoinducers” (University of Leicester, priority 1997, dated 2003).
At least one structure is not confirmed: it was looked up by name or label, or the drawing left a doubt.

Details: cited from earlier work

Q: For `O=C(N[C@H]1COC(=O)[C@@H](NC(=O)c2cccc(O)c2O)COC(=O)[C@@H](NC(=O)c2cccc(O)c2O)COC1=O)c1cccc(O)c1O` [enterochelin], which Stability to acidification is on record?
A: can be acidifed without inactivation
